PubChem BioAssay AID743121 | NCATS | 2013
The deposit covers about 26,000 reagents; below is a random part of them. Over the whole deposit, 167 (0.63%) were called active. 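Calls are per gene from RSA p-values that are not deposited; an individual active-marked siRNA can sensitise only weakly.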 Reagents against one gene are numbered here. Further read-outs or replicates are left out here. No sequences are given here.

Test: 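Knock-downs that sensitise breast cancer cells to camptothecin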 (primary screen)
System: MDA-MB-231 cells, a human breast cancer line
Reagents: single siRNA against human genes, 20 nM siRNA (0.8 pmol per well)
Duration: 120 h (drug added 48 h after transfection, read 72 h later)
Treatment: camptothecin 20 nM (about EC30) for 72 h; vehicle 0.1% DMSO in parallel plates
Measurement: 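CellTiter-Glo ATP signal, scaled to control siRNA as percent viability; sensitisation given as log2 of untreated divided by camptothecin-treated viability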
Scale: log2 vehicle/camptothecin viability: higher = stronger sensitisation to camptothecin
Call rule: 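Each gene scored by redundant siRNA activity (RSA) over its individual siRNA ratios; a gene is called active at p < 0.001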

After knock-down of SNCA #1 the results were log2 vehicle/camptothecin viability -0.0633; inactive.
SNCA #2 gave log2 vehicle/camptothecin viability 0.693; inactive.
Silencing of SNCA #3 gave: log2 vehicle/camptothecin viability -0.111; inactive.
For SNCA #4, the entry reads log2 vehicle/camptothecin viability 0.166; inactive.
For NRG1 #1, the entry reads log2 vehicle/camptothecin viability 0.073; inactive.
With knock-down of NRG1 #2, the screen gave log2 vehicle/camptothecin viability -0.0405; inactive.
Knock-down of NRG1 #3 resulted in: log2 vehicle/camptothecin viability -0.138; inactive.
NRG1 #4 scored log2 vehicle/camptothecin viability -0.249; inactive.
With knock-down of NRG1 #5 the results were log2 vehicle/camptothecin viability 0.214; inactive.
For NRG1 #6, the values are log2 vehicle/camptothecin viability -0.253; inactive.
Depletion of NRG1 #7 gave: log2 vehicle/camptothecin viability -0.17; inactive.
NRG1 #8 gave log2 vehicle/camptothecin viability -0.167; inactive.
Knock-down of CD99 #1 came out at: log2 vehicle/camptothecin viability -0.0819; inactive.
Against CD99 #2 the deposit lists log2 vehicle/camptothecin viability -0.614; inactive.
Against CD99 #3, the entry reads log2 vehicle/camptothecin viability 0.0612; inactive.

An excerpt from the list above:
SNCA #2 → log2 vehicle/camptothecin viability: 0.693; call: inactive
SNCA #3 → log2 vehicle/camptothecin viability: -0.111; call: inactive
SNCA #4 → log2 vehicle/camptothecin viability: 0.166; call: inactive
NRG1 #1 → log2 vehicle/camptothecin viability: 0.073; call: inactive
NRG1 #2 → log2 vehicle/camptothecin viability: -0.0405; call: inactive

Continued:
With knock-down of GFRAL #1, the record shows log2 vehicle/camptothecin viability -0.111; inactive.
With knock-down of GFRAL #2, the screen gave log2 vehicle/camptothecin viability -0.28; inactive.
GFRAL #3 gave log2 vehicle/camptothecin viability -0.365; inactive.
With knock-down of GFRAL #4, the screen gave log2 vehicle/camptothecin viability -0.385; inactive.
Knock-down of PRPH2 #1 came out at: log2 vehicle/camptothecin viability -0.147; inactive.
Depletion of PRPH2 #2 gave: log2 vehicle/camptothecin viability 0.264; inactive.
PRPH2 #3 showed log2 vehicle/camptothecin viability -0.0678; inactive.
For PRPH2 #4, the values are log2 vehicle/camptothecin viability -0.128; inactive.
SP140L #1 gave log2 vehicle/camptothecin viability 0.0406; inactive.
With knock-down of SP140L #2, the record shows log2 vehicle/camptothecin viability -0.326; inactive.
With knock-down of SP140L #3, the screen gave log2 vehicle/camptothecin viability -0.215; inactive.
After knock-down of GPX2 #1, the screen gave log2 vehicle/camptothecin viability -0.144; inactive.
Silencing of GPX2 #2 came out at: log2 vehicle/camptothecin viability -0.04; inactive.
For GPX2 #3 the deposit lists log2 vehicle/camptothecin viability -0.0949; inactive.
GPX2 #4 showed log2 vehicle/camptothecin viability -0.0942; inactive.
Against ITGA6 #1 the deposit lists log2 vehicle/camptothecin viability 0.155; inactive.
Depletion of ITGA6 #2 resulted in: log2 vehicle/camptothecin viability 0.179; inactive.
With knock-down of ITGA6 #3, the screen gave log2 vehicle/camptothecin viability 0.17; inactive.
Against ITGA6 #4, the values are log2 vehicle/camptothecin viability -0.316; inactive.
For IRAK3 #1, the entry reads log2 vehicle/camptothecin viability -0.255; inactive.
Silencing of IRAK3 #2 gave: log2 vehicle/camptothecin viability 0.109; inactive.
Knock-down of IRAK3 #3 gave: log2 vehicle/camptothecin viability 0.763; inactive.
Silencing of IRAK3 #4 came out at: log2 vehicle/camptothecin viability 0.0275; inactive.
